This is an account of results in paper doi:10.1101/2024.02.12.579695.

For at least one entry, the source does not settle the construct or the ends of the probe. A negative result means that nothing was seen under these conditions. At least one verdict rests on a figure or table, not on a statement of the authors. For some assays here: Weaker means in comparison with the reference protein, sequence or condition of that experiment.

The test system of series [1] is DR2539 (form not stated) (Deinococcus radiodurans). The experiment in a line: EMSA. Particulars: 0.5 mM Mn2+. On the technique in general: A gel shift assay detects complexes by their altered migration in electrophoresis.
The test system is the same in series [2]. The experiment in a line: CD titration.
Where [3] appears, read: loss of Tyr59 contact not essential.
Setting [4] is: mutation of all major-groove nucleotides: complete loss.

As to “ACTTTAGTCGCGCCTAAAGTA (double strand) [dr1709p_T2C]”, in series [1] (setting [3]), the binding result is “binds”. As to “AGGGGAGTCGCGCCTCCCCTA (double strand) [dr1709p_T2345G]”, in series [1] (setting [4]), the binding result is listed as “no binding”. Consider “AGTTTAGTCGCGCCTAAACTA (double strand) [dr1709p_T2G]”, for which the binding result in series [1] (setting [3]) is “binds”. Turning to “ATGGGAGTCGCGCCTCCCATA (double strand) [dr1709p_T345G]”, the binding result in series [1] (setting [4]) is listed as “no binding”. As for “ATTCTGGTCGCGCCCAGAATA (double strand) [dr1709p_T4C/A6G]”, the binding result in series [1] (dramatic decrease (T4 and reverse T16 both mutated)) is given as “binds more weakly”.

On to “ATTTTAGTCGCGCCTAAAATA (double strand) [dr1709p_wt]”, for which the binding result in series [1] is reported as “binds”; in series [2] (2 mM EDTA) it was “no binding”; in series [2] (no EDTA), “binds”.
